Results are given in words; binding and its absence hold for the method and conditions named. Some entries that bind do so weakly or less than the wild type.
Columns and labels:
[1] = target: full-length human CD137 on the cell surface (human) (UniProt Q07011); assay: flow cytometry
[2] = target: Hu_EL111AA (human) (UniProt Q07011); assay: flow cytometry, HEK293F
[3] = target: Hu_F125A (human) (UniProt Q07011); assay: flow cytometry, HEK293F
[4] = target: Hu_FN125AA (human) (UniProt Q07011); assay: flow cytometry, HEK293F
[5] = target: Hu_GQ109AA (human) (UniProt Q07011); assay: flow cytometry, HEK293F
[6] = target: Hu_GT150AA (human) (UniProt Q07011); assay: flow cytometry, HEK293F
[7] = target: Hu_I64A (human) (UniProt Q07011); assay: flow cytometry, HEK293F
[8] = target: Hu_L95A (human) (UniProt Q07011); assay: flow cytometry, HEK293F
[9] = target: Hu_N30A (human) (UniProt Q07011); assay: flow cytometry, HEK293F
[10] = target: Hu_P50A (human) (UniProt Q07011); assay: flow cytometry, HEK293F
[11] = target: Hu_PW135AA (human) (UniProt Q07011); assay: flow cytometry, HEK293F
[12] = target: Hu_Q59A (human) (UniProt Q07011); assay: flow cytometry, HEK293F
[13] = target: Hu_R66A (human) (UniProt Q07011); assay: flow cytometry, HEK293F
[14] = target: Hu_TN137AA (human) (UniProt Q07011); assay: flow cytometry, HEK293F
[15] = target: full-length human CD137 on the cell surface (human) (UniProt Q07011); assay: flow cytometry, HEK293F
[16] = target: Hu_CRD1-CRD2-CRD3 (human) (UniProt Q07011); assay: flow cytometry, yeast display
[17] = target: Hu_CRD1-CRD2-CRD3 (human) (UniProt Q07011); assay: flow cytometry, yeast display [Cont.]
[18] = target: Hu_FN125AA (human) (UniProt Q07011); assay: flow cytometry, HEK293F cells expressing CD137 or mutant [Cont.]
[19] = target: Hu_GT150AA (human) (UniProt Q07011); assay: as above
[20] = target: Hu_PW135AA (human) (UniProt Q07011); assay: as above
[21] = target: full-length human CD137 on the cell surface (human) (UniProt Q07011); assay: as above
[22] = target: T1, full-length mouse CD137 on the cell surface (mouse) (UniProt P20334); assay: flow cytometry
T1 sequence: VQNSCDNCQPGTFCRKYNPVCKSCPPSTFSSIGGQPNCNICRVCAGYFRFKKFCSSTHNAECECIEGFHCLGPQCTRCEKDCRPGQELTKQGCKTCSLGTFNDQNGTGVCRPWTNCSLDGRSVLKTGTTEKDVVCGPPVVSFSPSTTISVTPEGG

Protein sequences, listed by entry. Tags and fused reporters are not part of them. Lines headed by an entry give the natural chain unless they say otherwise; changes in a name come on top. Residues count along the entry.
UniProt Q07011: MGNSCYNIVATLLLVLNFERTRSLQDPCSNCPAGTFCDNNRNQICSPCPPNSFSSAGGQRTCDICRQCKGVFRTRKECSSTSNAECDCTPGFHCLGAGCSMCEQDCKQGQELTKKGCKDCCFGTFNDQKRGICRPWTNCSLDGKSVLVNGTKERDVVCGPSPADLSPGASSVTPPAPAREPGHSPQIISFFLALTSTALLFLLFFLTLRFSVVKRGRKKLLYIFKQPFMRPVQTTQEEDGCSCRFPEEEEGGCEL
UniProt P41273, residues 71-254: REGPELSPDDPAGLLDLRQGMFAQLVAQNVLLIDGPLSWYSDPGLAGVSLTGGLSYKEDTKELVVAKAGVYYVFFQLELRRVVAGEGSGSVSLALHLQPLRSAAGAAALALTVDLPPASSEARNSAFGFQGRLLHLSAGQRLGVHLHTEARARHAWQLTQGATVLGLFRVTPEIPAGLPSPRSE
UniProt P41274, residues 104-309: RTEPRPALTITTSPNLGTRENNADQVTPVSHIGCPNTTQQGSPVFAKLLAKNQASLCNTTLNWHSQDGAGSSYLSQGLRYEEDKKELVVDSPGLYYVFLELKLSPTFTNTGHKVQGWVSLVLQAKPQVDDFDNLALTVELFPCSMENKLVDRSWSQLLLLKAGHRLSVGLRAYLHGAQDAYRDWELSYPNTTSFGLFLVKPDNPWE

[23] = target: T1, full-length mouse CD137 on the cell surface (mouse); assay: flow cytometry, yeast display [Cont.]

Measured: binding

human CD137 ligand (from UniProt P41273 71-254)
not listed: [22] | [23]
binds: all other assays above

mouse CD137L (from UniProt P41274 104-309) (ligand)
binds: [22] | [23]

Reference: patent US20190055314A1
